Record: PubChem BioAssay AID743121 (NCATS, 2013)

Assay: 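Genes whose silencing strengthens cell killing by camptothecin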 (primary screen)
Cells: MDA-MB-231 cells, a human breast cancer line
Reagent: single siRNA against human genes, 20 nM siRNA (0.8 pmol per well)
Timing: 120 h (drug added 48 h after transfection, read 72 h later)
Treatment: camptothecin 20 nM (about EC30) for 72 h; vehicle 0.1% DMSO in parallel plates
Detection: 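CellTiter-Glo ATP signal, scaled to control siRNA as percent viability; sensitisation given as log2 of untreated divided by camptothecin-treated viability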
Direction: log2 vehicle/camptothecin viability: higher = stronger sensitisation to camptothecin
Call rule: 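Active genes have an RSA gene-level p-value below 0.001, computed from the ratios of their separate siRNAs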
The deposit covers about 26,000 reagents; this is a random part of them. 167 of them (0.63%) count as active. 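Calls are per gene from RSA p-values that are not deposited; an individual active-marked siRNA can sensitise only weakly.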 Unmarked entries are inactive. Not all columns of the deposit are shown. Reagent sequences are not shown.

With AURKA [SID164390192], how do the results read?
log2 vehicle/camptothecin viability: -0.408

With AURKA [SID164390193], how do the results read?
log2 vehicle/camptothecin viability: -0.271

For AURKA [SID164390195], what does the deposit list?
log2 vehicle/camptothecin viability: -0.022

For AURKA [SID164390199], how do the results read?
log2 vehicle/camptothecin viability: -0.381

Which result is listed for KCNT2 [SID164659142]?
log2 vehicle/camptothecin viability: -0.101

With KCNT2 [SID164659144], how do the results read?
log2 vehicle/camptothecin viability: -0.382

For KCNT2 [SID164659145], how do the results read?
log2 vehicle/camptothecin viability: -0.166

For KCNT2 [SID164659146], what was measured?
log2 vehicle/camptothecin viability: -0.385

For RAPSN [SID164384688], what does the deposit list?
log2 vehicle/camptothecin viability: -0.00736

How did the screen score RAPSN [SID164384689]?
log2 vehicle/camptothecin viability: -0.115

With RAPSN [SID164384690], what was measured?
log2 vehicle/camptothecin viability: -0.307

How did the screen score RAPSN [SID164384691]?
log2 vehicle/camptothecin viability: -0.0786

For ADGRB3 [SID164355006], what was measured?
log2 vehicle/camptothecin viability: -0.24

For ADGRB3 [SID164355008], what was measured?
log2 vehicle/camptothecin viability: -0.438

For ADGRB3 [SID164355011], how do the results read?
log2 vehicle/camptothecin viability: -0.453

With ADGRB3 [SID164355012], what does the deposit list?
log2 vehicle/camptothecin viability: -0.402

For ZNRF3 [SID164543211], how do the results read?
log2 vehicle/camptothecin viability: -0.224

For ZNRF3 [SID164543212], what does the deposit list?
log2 vehicle/camptothecin viability: -0.718

How did the screen score ZNRF3 [SID164543213]?
log2 vehicle/camptothecin viability: -0.552

What is on record for ZNRF3 [SID164543214]?
log2 vehicle/camptothecin viability: 0.11

Which result is listed for BMP7 [SID164355437]?
log2 vehicle/camptothecin viability: -0.308

Which result is listed for BMP7 [SID164355438]?
log2 vehicle/camptothecin viability: 0.393

With BMP7 [SID164355439], what does the deposit list?
log2 vehicle/camptothecin viability: 0.266

What is on record for BMP7 [SID164355440]?
log2 vehicle/camptothecin viability: -0.185

With TXN [SID164393043], what was measured?
log2 vehicle/camptothecin viability: -0.472

What is on record for TXN [SID164393044]?
log2 vehicle/camptothecin viability: -0.00107

With TXN [SID164393045], what was measured?
log2 vehicle/camptothecin viability: 0.0588

Which result is listed for TXN [SID164393046]?
log2 vehicle/camptothecin viability: -0.141

For DTX3L [SID164576463], what was measured?
log2 vehicle/camptothecin viability: -0.561

What is on record for DTX3L [SID164576464]?
log2 vehicle/camptothecin viability: -0.00525

With DTX3L [SID164576465], how do the results read?
log2 vehicle/camptothecin viability: 0.0591

Which result is listed for DTX3L [SID164576466]?
log2 vehicle/camptothecin viability: -0.141

With MPST [SID164376046], what was measured?
log2 vehicle/camptothecin viability: -0.139

What is on record for MPST [SID164376047]?
log2 vehicle/camptothecin viability: -0.0367

What is on record for MPST [SID164376050]?
log2 vehicle/camptothecin viability: -0.566

For MPST [SID164376051], what was measured?
log2 vehicle/camptothecin viability: -0.18
